From the supplement of paper PMC10849652
The other results are listed elsewhere or left out.

Amino acid sequences for entries named in this document (tags omitted). A change or cut given only in a name is not applied to a line headed by its entry.
UniProt Q99549: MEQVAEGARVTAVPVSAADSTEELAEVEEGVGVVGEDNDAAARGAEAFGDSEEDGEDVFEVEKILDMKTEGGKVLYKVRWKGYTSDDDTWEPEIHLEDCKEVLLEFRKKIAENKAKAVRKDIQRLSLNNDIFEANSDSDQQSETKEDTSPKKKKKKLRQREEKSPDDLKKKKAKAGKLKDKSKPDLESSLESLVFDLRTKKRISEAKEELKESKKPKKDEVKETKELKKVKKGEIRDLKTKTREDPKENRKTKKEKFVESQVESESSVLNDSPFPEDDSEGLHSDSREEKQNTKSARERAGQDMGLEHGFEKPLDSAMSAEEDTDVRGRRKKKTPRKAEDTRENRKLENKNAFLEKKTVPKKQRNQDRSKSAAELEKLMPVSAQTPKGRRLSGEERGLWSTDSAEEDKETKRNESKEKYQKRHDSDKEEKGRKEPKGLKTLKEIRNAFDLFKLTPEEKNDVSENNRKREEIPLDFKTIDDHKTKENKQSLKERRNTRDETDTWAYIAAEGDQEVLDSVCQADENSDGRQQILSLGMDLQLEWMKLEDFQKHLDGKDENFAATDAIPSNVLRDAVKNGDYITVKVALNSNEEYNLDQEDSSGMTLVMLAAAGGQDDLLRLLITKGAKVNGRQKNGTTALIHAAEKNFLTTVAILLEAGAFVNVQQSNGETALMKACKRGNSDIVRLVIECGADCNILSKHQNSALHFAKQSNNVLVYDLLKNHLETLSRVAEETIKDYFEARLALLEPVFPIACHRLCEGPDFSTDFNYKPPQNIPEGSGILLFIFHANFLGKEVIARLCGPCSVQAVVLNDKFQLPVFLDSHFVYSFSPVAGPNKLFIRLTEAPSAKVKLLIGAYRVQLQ
UniProt O94851, whole entry, looked up: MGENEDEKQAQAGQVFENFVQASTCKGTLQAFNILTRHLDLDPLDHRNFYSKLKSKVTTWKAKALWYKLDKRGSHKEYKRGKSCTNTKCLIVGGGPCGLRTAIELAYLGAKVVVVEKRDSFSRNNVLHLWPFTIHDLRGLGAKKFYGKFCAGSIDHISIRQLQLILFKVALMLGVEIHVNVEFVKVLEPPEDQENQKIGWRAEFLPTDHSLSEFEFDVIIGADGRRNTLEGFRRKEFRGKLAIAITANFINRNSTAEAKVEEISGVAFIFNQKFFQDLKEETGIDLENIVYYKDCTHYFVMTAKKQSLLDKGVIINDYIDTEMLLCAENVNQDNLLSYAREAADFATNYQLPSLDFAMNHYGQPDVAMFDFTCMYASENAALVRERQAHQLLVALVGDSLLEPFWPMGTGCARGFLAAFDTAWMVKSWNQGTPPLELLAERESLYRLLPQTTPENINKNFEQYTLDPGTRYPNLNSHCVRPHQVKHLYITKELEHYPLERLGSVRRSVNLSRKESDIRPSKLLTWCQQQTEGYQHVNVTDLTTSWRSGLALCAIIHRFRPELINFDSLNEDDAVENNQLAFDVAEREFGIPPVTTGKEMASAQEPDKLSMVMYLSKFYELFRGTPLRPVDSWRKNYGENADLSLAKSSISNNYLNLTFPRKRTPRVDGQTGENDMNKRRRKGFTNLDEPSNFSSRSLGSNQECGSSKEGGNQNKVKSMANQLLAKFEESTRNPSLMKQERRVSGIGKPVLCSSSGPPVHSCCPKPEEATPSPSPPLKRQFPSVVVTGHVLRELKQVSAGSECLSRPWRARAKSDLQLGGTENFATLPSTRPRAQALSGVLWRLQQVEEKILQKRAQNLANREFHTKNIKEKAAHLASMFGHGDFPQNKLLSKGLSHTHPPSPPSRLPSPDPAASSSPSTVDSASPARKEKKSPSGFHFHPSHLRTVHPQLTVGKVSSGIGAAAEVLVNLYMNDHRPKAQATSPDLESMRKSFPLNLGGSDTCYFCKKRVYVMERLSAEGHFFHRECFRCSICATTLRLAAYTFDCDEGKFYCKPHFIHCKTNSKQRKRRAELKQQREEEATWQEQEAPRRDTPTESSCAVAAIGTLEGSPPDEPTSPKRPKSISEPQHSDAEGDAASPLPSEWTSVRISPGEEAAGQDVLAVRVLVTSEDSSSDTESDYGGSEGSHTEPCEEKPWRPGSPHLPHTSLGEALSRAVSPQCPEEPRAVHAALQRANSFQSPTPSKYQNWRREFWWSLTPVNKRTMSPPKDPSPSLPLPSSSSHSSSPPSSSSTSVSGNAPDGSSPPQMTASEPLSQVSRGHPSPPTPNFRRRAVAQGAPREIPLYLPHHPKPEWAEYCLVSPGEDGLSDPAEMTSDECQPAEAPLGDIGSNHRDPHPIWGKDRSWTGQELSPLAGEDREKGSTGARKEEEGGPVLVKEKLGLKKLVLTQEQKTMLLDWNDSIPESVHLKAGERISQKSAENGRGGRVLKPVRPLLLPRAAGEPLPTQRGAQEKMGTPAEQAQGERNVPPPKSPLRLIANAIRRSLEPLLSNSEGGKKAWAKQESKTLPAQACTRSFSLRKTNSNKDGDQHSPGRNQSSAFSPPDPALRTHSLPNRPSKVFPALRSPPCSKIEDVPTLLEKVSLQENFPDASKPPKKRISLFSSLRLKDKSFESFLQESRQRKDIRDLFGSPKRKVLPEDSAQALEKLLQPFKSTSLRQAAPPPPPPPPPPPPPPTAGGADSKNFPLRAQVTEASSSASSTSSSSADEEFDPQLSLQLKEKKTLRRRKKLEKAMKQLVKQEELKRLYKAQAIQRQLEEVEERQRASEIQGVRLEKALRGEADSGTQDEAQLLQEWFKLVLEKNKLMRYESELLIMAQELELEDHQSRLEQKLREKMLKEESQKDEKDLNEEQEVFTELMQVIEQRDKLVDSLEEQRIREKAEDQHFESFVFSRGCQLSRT
UniProt Q96BX8: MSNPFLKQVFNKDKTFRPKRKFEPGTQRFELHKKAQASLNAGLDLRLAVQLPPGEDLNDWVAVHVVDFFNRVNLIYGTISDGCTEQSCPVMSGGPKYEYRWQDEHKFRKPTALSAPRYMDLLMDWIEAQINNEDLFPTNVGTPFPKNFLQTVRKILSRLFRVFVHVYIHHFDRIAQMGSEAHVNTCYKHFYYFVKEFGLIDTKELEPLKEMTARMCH
UniProt Q9H3L0: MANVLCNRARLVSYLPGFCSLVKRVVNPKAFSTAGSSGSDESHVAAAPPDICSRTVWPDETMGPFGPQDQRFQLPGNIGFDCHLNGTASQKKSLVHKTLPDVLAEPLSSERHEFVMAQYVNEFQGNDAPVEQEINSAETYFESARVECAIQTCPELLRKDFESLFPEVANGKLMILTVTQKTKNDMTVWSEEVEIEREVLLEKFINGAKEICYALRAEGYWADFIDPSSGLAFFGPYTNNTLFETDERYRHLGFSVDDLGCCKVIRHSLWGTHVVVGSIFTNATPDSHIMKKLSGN
UniProt Q8N3F8: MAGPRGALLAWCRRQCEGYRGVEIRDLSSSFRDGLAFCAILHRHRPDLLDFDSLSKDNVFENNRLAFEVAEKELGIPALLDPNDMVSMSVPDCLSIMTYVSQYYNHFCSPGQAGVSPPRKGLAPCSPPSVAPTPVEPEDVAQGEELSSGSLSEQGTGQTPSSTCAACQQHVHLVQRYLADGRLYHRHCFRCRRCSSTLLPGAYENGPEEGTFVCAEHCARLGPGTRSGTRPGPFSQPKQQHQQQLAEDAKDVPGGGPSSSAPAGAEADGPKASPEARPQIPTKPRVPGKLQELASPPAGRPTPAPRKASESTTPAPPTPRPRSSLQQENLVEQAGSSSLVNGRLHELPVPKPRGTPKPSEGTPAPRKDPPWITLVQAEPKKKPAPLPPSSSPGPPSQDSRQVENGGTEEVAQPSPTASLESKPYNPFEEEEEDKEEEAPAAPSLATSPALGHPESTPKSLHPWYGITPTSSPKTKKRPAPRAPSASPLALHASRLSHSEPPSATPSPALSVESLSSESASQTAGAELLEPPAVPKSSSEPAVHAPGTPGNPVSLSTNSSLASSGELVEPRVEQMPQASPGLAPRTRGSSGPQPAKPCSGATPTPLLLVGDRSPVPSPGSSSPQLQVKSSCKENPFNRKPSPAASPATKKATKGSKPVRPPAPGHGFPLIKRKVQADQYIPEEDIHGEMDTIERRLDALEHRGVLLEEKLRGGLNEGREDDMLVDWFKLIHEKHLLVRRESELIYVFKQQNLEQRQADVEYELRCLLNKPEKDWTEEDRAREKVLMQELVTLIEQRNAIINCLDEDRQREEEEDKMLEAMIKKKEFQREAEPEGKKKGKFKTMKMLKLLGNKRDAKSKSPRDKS
UniProt Q99583: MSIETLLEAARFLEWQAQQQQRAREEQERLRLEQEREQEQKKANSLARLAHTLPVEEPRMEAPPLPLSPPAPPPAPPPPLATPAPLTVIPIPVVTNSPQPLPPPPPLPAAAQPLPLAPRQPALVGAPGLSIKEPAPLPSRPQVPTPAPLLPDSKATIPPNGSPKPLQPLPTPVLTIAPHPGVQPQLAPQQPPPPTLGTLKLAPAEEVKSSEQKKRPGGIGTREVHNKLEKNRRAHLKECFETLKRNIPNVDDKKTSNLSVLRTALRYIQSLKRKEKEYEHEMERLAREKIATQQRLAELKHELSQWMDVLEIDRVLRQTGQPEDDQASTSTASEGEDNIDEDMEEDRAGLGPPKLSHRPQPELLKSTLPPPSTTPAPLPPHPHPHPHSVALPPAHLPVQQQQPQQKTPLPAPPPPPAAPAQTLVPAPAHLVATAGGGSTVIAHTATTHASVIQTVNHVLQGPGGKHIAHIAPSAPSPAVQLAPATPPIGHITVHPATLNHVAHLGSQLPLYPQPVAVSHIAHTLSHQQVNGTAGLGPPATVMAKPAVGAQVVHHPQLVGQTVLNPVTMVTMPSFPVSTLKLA
UniProt Q13064: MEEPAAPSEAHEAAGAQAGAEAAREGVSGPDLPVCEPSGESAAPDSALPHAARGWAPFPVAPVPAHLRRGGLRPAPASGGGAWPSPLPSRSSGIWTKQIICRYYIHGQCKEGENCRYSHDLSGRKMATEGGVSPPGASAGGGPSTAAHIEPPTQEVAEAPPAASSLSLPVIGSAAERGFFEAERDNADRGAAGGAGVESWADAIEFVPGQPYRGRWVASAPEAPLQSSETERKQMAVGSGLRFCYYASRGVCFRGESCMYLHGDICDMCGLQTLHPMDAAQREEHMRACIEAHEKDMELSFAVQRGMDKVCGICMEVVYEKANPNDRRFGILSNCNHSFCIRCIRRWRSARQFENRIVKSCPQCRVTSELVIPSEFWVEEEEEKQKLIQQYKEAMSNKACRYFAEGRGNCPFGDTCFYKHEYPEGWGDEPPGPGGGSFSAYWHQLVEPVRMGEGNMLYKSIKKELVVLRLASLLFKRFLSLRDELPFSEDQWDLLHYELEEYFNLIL
UniProt Q9Y605: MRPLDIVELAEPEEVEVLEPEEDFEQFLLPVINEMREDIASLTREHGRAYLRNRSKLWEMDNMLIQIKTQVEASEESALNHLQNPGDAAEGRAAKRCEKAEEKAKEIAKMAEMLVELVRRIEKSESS
UniProt Q9Y5U8: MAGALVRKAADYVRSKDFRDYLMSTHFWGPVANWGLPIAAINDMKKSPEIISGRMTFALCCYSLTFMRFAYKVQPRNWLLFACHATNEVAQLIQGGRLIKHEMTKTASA
UniProt Q13015: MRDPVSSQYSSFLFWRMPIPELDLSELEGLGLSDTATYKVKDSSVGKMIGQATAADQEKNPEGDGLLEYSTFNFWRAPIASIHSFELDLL
UniProt Q29983, whole entry, looked up: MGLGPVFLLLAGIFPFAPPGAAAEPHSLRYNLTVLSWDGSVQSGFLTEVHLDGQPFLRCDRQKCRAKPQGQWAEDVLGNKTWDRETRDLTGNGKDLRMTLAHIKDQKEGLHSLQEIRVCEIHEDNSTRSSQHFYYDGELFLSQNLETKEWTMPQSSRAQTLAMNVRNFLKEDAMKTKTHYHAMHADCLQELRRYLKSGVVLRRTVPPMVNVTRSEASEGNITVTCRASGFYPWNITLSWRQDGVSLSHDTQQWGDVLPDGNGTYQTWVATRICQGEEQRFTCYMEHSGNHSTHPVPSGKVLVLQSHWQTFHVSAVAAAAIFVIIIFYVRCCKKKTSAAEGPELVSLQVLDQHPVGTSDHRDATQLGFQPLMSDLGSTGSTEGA
UniProt Q9BU76: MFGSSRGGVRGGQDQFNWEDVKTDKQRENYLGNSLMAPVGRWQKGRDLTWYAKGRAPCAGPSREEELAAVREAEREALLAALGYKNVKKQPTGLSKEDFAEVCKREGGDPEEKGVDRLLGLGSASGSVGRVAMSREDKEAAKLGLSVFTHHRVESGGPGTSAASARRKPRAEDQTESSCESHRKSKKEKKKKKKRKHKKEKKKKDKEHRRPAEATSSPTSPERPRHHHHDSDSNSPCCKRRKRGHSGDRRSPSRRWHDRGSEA
UniProt O96033: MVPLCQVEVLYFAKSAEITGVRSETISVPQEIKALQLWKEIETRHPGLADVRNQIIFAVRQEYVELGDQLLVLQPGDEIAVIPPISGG
UniProt Q9UI43: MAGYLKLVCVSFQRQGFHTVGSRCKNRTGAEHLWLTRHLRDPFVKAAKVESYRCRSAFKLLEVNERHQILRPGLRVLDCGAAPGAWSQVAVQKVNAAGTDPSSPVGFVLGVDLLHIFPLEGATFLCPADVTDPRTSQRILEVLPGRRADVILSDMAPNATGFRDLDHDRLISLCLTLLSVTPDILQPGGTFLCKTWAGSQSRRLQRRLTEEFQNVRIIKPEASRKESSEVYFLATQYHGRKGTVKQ

Compound: C1=CC=C(C=C1)C2=NC(=C(N2)C3=CC=NC=C3)C4=CC(=C(C=C4)Cl)O
Experiment: log2 fold change, soluble protein after heating vs DMSO (PISA); higher = thermal stabilisation; K562 cells, 10 uM, 30 min; active = over 0.2 and 3.5 SD of the protein, either way, in both replicates (recomputed)
Outline: (§1)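 K562 cells at 2×10^6 cells/mL were exposed to 10 μM compound for 30 min, then aliquots were heated for 3 min across 48°C-58°C, pooled, and extracted in PBS containing 0.5% NP-40 at 4°C. The supernatant after 21,000xg for 90 min was taken as soluble protein and measured by TMTpro 16plex LC-MS/MS with channel sums equalised. Thermal stability is reported relative to control samples, with values from duplicates. Fold changes are given on a log2 scale.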

log2 fold change, inactive:
MKRN1 (UniProt Q9UHC7) -0.179
MPHOSPH8 isoform 2 (UniProt Q99549) -0.055
MLLT10 (UniProt P55197) -0.353
MMRN1 (UniProt Q13201) 0.008
MICAL2 (UniProt O94851) -0.047
MOB3A (UniProt Q96BX8) -0.014
MMADHC (UniProt Q9H3L0) -0.039
MICALL1 (UniProt Q8N3F8) -0.205
MNT (UniProt Q99583) 0.06
MKRN3 (UniProt Q13064) -0.183
MRPL42 (UniProt Q9Y6G3) -0.017
MRFAP1 (UniProt Q9Y605) -0.045
MPC1 (UniProt Q9Y5U8) -0.026
MRPL18 (UniProt Q9H0U6) -0.108
MID1IP1 (UniProt Q9NPA3) -0.076
MOB2 isoform 3 (UniProt Q70IA6) 0.025
MLLT11 (UniProt Q13015) -0.071
MON1A (UniProt Q86VX9) -0.017
MICA (UniProt Q29983) -0.225
MINDY4 (UniProt Q4G0A6) 0.007
MMTAG2 (UniProt Q9BU76) -0.093
MRNIP (UniProt Q6NTE8) -0.183
MICAL1 isoform 4 (UniProt Q8TDZ2) 0.038

Compound: C1=CC=C2C(=C1)C3=NNC4=CC=CC(=C43)C2=O
Experiment: as above
Outline: as §1

log2 fold change, inactive:
MPHOSPH8 isoform 2 (UniProt Q99549) -0.086
MICAL2 (UniProt O94851) 0.036
MOB3A (UniProt Q96BX8) 0.052
MMADHC (UniProt Q9H3L0) 0.073
MICALL1 (UniProt Q8N3F8) -0.028
MNT (UniProt Q99583) -0.071
MKRN3 (UniProt Q13064) 0.109
MRPL42 (UniProt Q9Y6G3) -0.062
MIER2 (UniProt Q8N344) -0.112
MRFAP1 (UniProt Q9Y605) 0.141
MPC1 (UniProt Q9Y5U8) 0.014
MOCS2 (UniProt O96033) -0.131
MPZL1 isoform 3 (UniProt O95297) 0.073
MMAA (UniProt Q8IVH4) 0.132
MRM2 (UniProt Q9UI43) 0.121
MOB3B (UniProt Q86TA1) -0.092
MORC2 (UniProt Q9Y6X9) 0.421
MICA (UniProt Q29983) -0.004
MMTAG2 (UniProt Q9BU76) -0.052
MLH1 (UniProt P40692) 0.053
MKKS (UniProt Q9HB66) -0.094
MITF (UniProt O75030) 0.047
MICAL1 isoform 4 (UniProt Q8TDZ2) -0.108

Compound: C1CCN(C1)C(=O)NC2=CC=CC(=C2)NC3=NC=C(C(=N3)NCCC4=CN=CN4)Br
Experiment: as above
Outline: as §1

log2 fold change, inactive:
MINDY2 (UniProt Q8NBR6) 0.01
MKRN1 (UniProt Q9UHC7) 0.08
MPHOSPH8 isoform 2 (UniProt Q99549) -0.02
MICAL2 (UniProt O94851) -0.6
MOB3A (UniProt Q96BX8) -0.029
MMADHC (UniProt Q9H3L0) 0.014
MICALL1 (UniProt Q8N3F8) -0.01
MNT (UniProt Q99583) 0.146
MKRN3 (UniProt Q13064) 0.045
MRPL42 (UniProt Q9Y6G3) 0.062
MRFAP1 (UniProt Q9Y605) -0.162
MPC1 (UniProt Q9Y5U8) -0.033
MRPL18 (UniProt Q9H0U6) -0.043
MOCS2 (UniProt O96033) -0.18
MID1IP1 (UniProt Q9NPA3) -0.08
MOB2 isoform 3 (UniProt Q70IA6) 0.135
MPZL1 isoform 3 (UniProt O95297) 0.147
MLLT11 (UniProt Q13015) -0.123
MRM2 (UniProt Q9UI43) -0.017
MOB3B (UniProt Q86TA1) -0.186
MON1A (UniProt Q86VX9) 0
MICA (UniProt Q29983) -0.012
MMTAG2 (UniProt Q9BU76) -0.135
MLH1 (UniProt P40692) -0.165
MRNIP (UniProt Q6NTE8) -0.101
MLKL (UniProt Q8NB16) -0.05
MKKS (UniProt Q9HB66) 0.025
